Assay results reported in PubChem BioAssay AID248 (DTP/NCI, 2004).
The list shows only some results of the screen, not a fair sample: it is rich in T/C values a quarter to a half above the control, in often repeated tests (any T/C) and in doses without a T/C. Other doses and runs of a compound stand elsewhere. T/C gives the treated animals as a percentage of the vehicle group. Some entries give survivors of the animals treated and no T/C: the source files T/C as zero there, which appears to mark a toxic dose or a test without result, not a measured value. Some survivor counts are full or nearly so, which does not show that the dose was tolerated: the source hardly ever lists a survival T/C far under the control, and the zero likely stands for such cases as well. Survivors were counted at the toxicity check, usually on the fifth day, unless a day is given; later deaths do not show. Schedules are NCI's codes, read here as Q, the interval in days (D) or hours (H), X, the number of doses. Some doses were run more than once; the values are given in rising order. Some molecules as drawn cover several salts, stereoisomers or complexes of the source; a dose is that of the sample tested. Some schedules carry Z or #; the key to these is not given. For survival time, this PubChem deposit counts one and a half times the control or more as active, and values a quarter to a half above the control carry no call in these data; other NCI protocols may use other cut-offs.

Test system: L1210 leukemia ip in BDF1 mice, survival T/C
Assay: NCI In Vivo Anticancer Drug Screen. Data for tumor model L1210 Leukemia (intraperitoneal) in B6D2F1 (BDF1) mice
Details: T/C endpoint: mean survival time, higher T/C = longer survival
[1] = dose: 100.0 mg/kg/injection, schedule: Q01DX009 (ip), vehicle: saline with Tween-80
[2] = dose: 200.0 mg/kg/injection, schedule: Q01DX009 (ip), vehicle: saline with Tween-80
[3] = dose: 400.0 mg/kg/injection, schedule: Q04DX003 (ip), vehicle: saline
[4] = dose: 400.0 mg/kg/injection, schedule: Q04DX003 (ip), vehicle: saline with Tween-80
[5] = dose: 400.0 mg/kg/injection, schedule: Q01DX001 (ip), vehicle: saline
[6] = dose: 200.0 mg/kg/injection, schedule: Q01DX Z (ip), vehicle: carboxymethylcellulose (CMC)

C/C=C/CC1(CCCC)C(=O)NC(=O)NC1=O
survivor count (dose: 300.0 mg/kg/injection, schedule: Q01DX001 (ip), vehicle: saline): 3 of 6

CC1(C)/C(=N\N=C2/C3CCC(C3)C2(C)C)C2CCC1C2
survivor count [1]: 6 of 6
survivor count [2]: 0 of 6
survivor count [3]: 0 of 6

Cc1cc2nc(Cc3ccccc3)[nH]c2cc1C
survivor count [1]: 6 of 6
survivor count [2]: 6 of 6

CC#CC#C/C=C1/C=CC(=O)O1
survivor count (dose: 35.0 mg/kg/injection, schedule: Q01DX009 (ip), vehicle: saline): 1 of 6
survivor count (dose: 50.0 mg/kg/injection, schedule: Q04DX003 (ip), vehicle: alcohol): 6 of 6
survivor count (dose: 55.0 mg/kg/injection, schedule: Q01DX009 (ip), vehicle: saline): 0 of 6
survivor count (dose: 100.0 mg/kg/injection, schedule: Q04DX003 (ip), vehicle: alcohol): 1 of 6
survivor count (dose: 200.0 mg/kg/injection, schedule: Q04DX003 (ip), vehicle: alcohol): 0 of 6

CC(C)(C)CC(C)(C)NS(=O)(=O)CCCBr
survivor count (dose: 100.0 mg/kg/injection, schedule: Q04DX003 (ip), vehicle: saline with Tween-80): 2 of 6 and 6 of 6
survivor count (dose: 200.0 mg/kg/injection, schedule: Q04DX003 (ip), vehicle: saline with Tween-80): 0 of 6
survivor count [4]: 0 of 6

O=S1(=O)CCN(c2ccccc2CC(c2c[nH]c3ccccc23)c2c[nH]c3ccccc23)CC1
survivor count [5]: 4 of 4

COCCCNS(=O)(=O)c1ncnc2nc[nH]c12
T/C [6]: 127 % of control
survivor count (dose: 250.0 mg/kg/injection, schedule: Q01DX Z (ip), vehicle: carboxymethylcellulose (CMC)): 0 of 6
T/C (dose: 300.0 mg/kg/injection, schedule: Q01DX Z (ip), vehicle: carboxymethylcellulose (CMC)): 142 % of control
survivor count (dose: 450.0 mg/kg/injection, schedule: Q01DX Z (ip), vehicle: carboxymethylcellulose (CMC)): 2 of 6
survivor count (dose: 500.0 mg/kg/injection, schedule: Q01DX Z (ip), vehicle: carboxymethylcellulose (CMC)): 0 of 6
survivor count (dose: 1000.0 mg/kg/injection, schedule: Q01DX Z (ip), vehicle: carboxymethylcellulose (CMC)): 0 of 6

C=C1C(=O)OC2C1C(O)C(OC(=O)/C(C)=C\C)C(C)=C1CC3OC3(C)C12 (centres undefined)
survivor count (dose: 100.0 mg/kg/injection, schedule: Q01DX001 (ip), vehicle: saline with Tween-80): 0 of 6

CCCN(CCC)CP(=S)(CN(CCC)CCC)CN(CCC)CCC
survivor count [5]: 2 of 6

CCC(C)c1ccc(-c2ccc(OC)cc2)cc1 (centres undefined)
survivor count [4]: 6 of 6

O=C(O)c1occ(Cl)c1Cl
survivor count (dose: 200.0 mg/kg/injection, schedule: Q01DX009 (ip), vehicle: water): 0 of 6
survivor count [5]: 0 of 6
survivor count (dose: 400.0 mg/kg/injection, schedule: Q01DX009 (ip), vehicle: Klucel (hydroxypropylcellulose) (HPC)): 0 of 6
survivor count (dose: 400.0 mg/kg/injection, schedule: Q04DX003 (ip), vehicle: water): 4 of 6

CCN(CC)CCCC(C)Nc1c(C)cnc2cc(Cl)c(C)cc12 (centres undefined)
survivor count [5]: 0 of 4

Cc1ccc(SNc2ccccc2)cc1
survivor count [4]: 6 of 6

CCCC[N+](C)(C)CCOC(=O)C1C2CC3OC(=O)C1C3C2 (centres undefined)
survivor count (dose: 200.0 mg/kg/injection, schedule: Q04DX003 (ip), vehicle: saline): 0 of 4
survivor count [3]: 0 of 4

CN(C)Nc1ncnc2nc[nH]c12
survivor count [6]: 2 of 6
survivor count (dose: 400.0 mg/kg/injection, schedule: Q01DX Z (ip), vehicle: carboxymethylcellulose (CMC)): 0 of 6
